# This is one part of the list. The exact form of the protein is not confirmed.
# Biological target: T1, ETS1 (UniProt P14921)
# T1 sequence: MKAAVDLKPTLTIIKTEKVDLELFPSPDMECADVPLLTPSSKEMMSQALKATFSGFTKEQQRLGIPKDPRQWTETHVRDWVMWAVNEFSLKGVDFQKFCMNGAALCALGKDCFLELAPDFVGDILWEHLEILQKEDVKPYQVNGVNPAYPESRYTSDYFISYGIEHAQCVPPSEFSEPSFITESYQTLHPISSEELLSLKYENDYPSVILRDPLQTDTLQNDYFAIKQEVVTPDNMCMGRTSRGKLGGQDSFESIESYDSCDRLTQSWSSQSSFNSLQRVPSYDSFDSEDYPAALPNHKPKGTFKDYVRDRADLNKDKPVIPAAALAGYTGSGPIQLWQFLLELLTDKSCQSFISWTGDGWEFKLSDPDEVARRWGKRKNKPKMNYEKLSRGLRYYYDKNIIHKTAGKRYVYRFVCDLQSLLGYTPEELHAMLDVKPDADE
# Assay: DAPPL (digital affinity profiling via proximity ligation, sequencing)
# Conditions: 10 mM Tris-HCl pH 7.5, 50 mM NaCl, 1 mM DTT, 4% glycerol, room temperature, 30 min; GST-TFs on glutathione beads, 16-mer random dsDNA library, 0.1% …; high values mean tight binding; double strand, one strand shown; scale: fold enrichment (6-mer frequency, TF over GST control)
row,Sequence,binding signal
1,ACCACG,1.05
2,AAACCT,1.08
3,CGCCTA,1.15
4,CGCGGC,0.994
5,GATCCA,1.03
6,ACGTAT,1.17
7,CTGAAC,1.34
8,GATTTG,1.19
9,GGTCAC,1.04
10,GCGTCC,1.09
11,CCTCGA,1.39
12,AGCTCA,1.13
13,ATTAAG,1.1
14,ATGGGC,1.29
15,CGATGC,1.13
16,TGTCTG,1.05
17,CCAAAT,1.05
18,TTGCCA,1.18
19,TTCGCC,1.13
20,TTGACT,1.23
21,ATTACC,1.26
22,ATGTTT,1.46
23,CGGAAC,1.18
24,GAACTA,1.22
25,CACGAC,1.33
26,GTATCC,1.85
27,CCCCCC,1.05
28,ACGGCA,1.12

row,Sequence,binding signal
1,GTTTAT,1.15
2,TAGAAA,1.07
3,TGTGGT,1.11
4,CACCAA,1.08
5,AATCTG,1.47
6,CTTTGG,1.3
7,TCTTCC,2.75
8,ACTATG,1.24
9,ACAAAT,1.18
10,AAGGCT,1.03
11,TCCACC,1.21
12,TGCTCG,1.3
13,ATACGA,1.22
14,GGCTAA,0.953
15,CGTTTC,1.67
16,TCCCCC,1.42
17,TTCTTA,1.42
18,CCATCC,1.24
19,GATGTT,1.23
20,TCGCCC,1.2
21,GCCTAA,1.14
22,CAATAG,1.04
23,GTAGTT,1.07
24,CTGCAT,1.43
25,TCCCGA,1.26
26,ACGAAA,1.17
27,CGCCGC,1.12

# Reformatted tab-delimited: part of the list above
row	Sequence	binding signal
24	CTGCAT	1.43
25	TCCCGA	1.26
26	ACGAAA	1.17
